{
  "source": "patent US20230176076",
  "system": "T1, JUL1 (JULGI) (Arabidopsis thaliana)",
  "T1 sequence": "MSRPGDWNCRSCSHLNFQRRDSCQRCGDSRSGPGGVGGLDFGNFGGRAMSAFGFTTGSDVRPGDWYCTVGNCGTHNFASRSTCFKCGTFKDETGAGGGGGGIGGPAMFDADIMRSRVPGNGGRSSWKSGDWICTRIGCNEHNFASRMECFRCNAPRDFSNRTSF",
  "assay": "binding assay",
  "settings": "GST-JUL1 bead surface interaction assay, fluorescence microscopy; purified recombinant protein; protein details: GST",
  "note": "Construct, isoform or probe ends are uncertain for at least one entry. Where a protein sequence is shown, tags need not be part of it.",
  "data": [
    {"sequence": "GGGGCCGGGGCCGGGGCCGGGG [C9orf72 G-quadruplex]", "values": [
      {"measurement": "binding result", "result": "binds"}
    ]}
  ]
}
